Assay results from PubChem BioAssay AID1671190 (National Center for Advancing Translational Sciences (NCATS), 2021).
“And” between values parts separate entries of the source, which are not always exact repeats. Equal entries are not always repeated. In all, about 580,000 compounds went through this assay and about 6,100 (1.1%) were called active. The shares of active, inactive and inconclusive entries below differ from those in the screen. Calls follow the shape of the dose curve; as a rule, active = well fitted inhibition curve with a large enough effect; inconclusive = small, poorly fitted or top-dose-only effect, or another doubt; inactive = no such curve, though single readings can be large or run the other way. A potency beside an inconclusive call is a rough fit, not a confirmed value.

Chains of the proteins cited; added tags and fusions are not shown. Lines headed by an entry give the natural chain unless they say otherwise; changes in a name come on top.
UniProt P18054: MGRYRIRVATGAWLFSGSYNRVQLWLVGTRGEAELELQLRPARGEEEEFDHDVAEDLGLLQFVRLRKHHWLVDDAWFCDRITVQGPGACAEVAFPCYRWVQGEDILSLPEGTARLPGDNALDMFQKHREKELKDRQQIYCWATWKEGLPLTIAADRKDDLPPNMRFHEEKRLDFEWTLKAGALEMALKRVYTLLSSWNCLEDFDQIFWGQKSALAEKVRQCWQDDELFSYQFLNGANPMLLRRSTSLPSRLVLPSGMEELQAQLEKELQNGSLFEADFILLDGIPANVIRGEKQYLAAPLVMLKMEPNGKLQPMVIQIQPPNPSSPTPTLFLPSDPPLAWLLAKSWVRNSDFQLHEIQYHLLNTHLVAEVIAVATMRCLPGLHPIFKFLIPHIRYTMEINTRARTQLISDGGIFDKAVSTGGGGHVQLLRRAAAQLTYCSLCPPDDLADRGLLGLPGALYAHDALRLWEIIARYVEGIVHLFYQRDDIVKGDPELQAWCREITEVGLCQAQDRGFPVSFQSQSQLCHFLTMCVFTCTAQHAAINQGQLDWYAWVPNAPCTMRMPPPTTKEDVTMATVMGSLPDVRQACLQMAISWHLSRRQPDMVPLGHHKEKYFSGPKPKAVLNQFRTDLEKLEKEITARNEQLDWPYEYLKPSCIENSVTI

target: Polyunsaturated fatty acid lipoxygenase ALOX12 (Homo sapiens) (UniProt P18054); assay: Primary qHTS assay for inhibitors of human arachidonate 12S-lipoxygenase (ALOX12): Round 2; details: purified 12hLO, xylenol orange hydroperoxide absorbance; series mostly up to 108 µM
How it was run: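 Hydroperoxide product was detected by ferrous iron/xylenol orange as the 573 to 405 nm absorbance ratio. Arachidonic acid at 40 uM (final) was turned over for 30 min at room temperature by 150 nM human 12hLO, pH 7.0 Hepes buffer, after 15 min compound preincubation.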
Potency is read from the fitted curve at half-maximal effect.

SMILES | Potency
CCOc1ccc(C(C)NC(=O)C2CCCN(c3cnc4nccnc4c3)C2)cc1 (configuration not stated) | inconclusive: 79.4 µM [inhibitor, single point]
CCOC(=O)C1CCN(C2=NC(=O)/C(=C/c3ccc(Cl)cc3)S2)CC1 | inconclusive: 6.31 µM [inhibitor, full curve, poor fit]
c1ccc(Sc2ccccn2)cc1 | inconclusive: 35.5 µM [inhibitor, single point]
COc1ccc(CNCc2ccncc2)cc1OC | inconclusive: 17.8 µM [inhibitor, partial curve, poor fit]
CCC(C)(C)C1CCC2(CC1)NC(=S)N(CCC(C)C)N2 (configuration not stated) | inconclusive: 39.8 µM [inhibitor, partial curve, poor fit]
COc1cccc(-c2nnc(NC(=O)Cc3cccs3)s2)c1 | inconclusive: 44.7 µM [inhibitor, partial curve, poor fit]
CC(C)(C)c1ccc(S(=O)(=O)NNC(=O)c2cc3ccccc3[nH]2)cc1 | inconclusive: 126 µM [inhibitor, single point]
Cc1c(S(=O)(=O)c2ccccn2)c(N)n(Cc2ccccc2Cl)c1C | inconclusive: 100 µM [inhibitor, single point]
COc1ccc2c(c1)Cc1sc(NC(C)=O)nc1-2 | inconclusive: 39.8 µM [inhibitor, partial curve, poor fit]
Cn1c(CC2Sc3ccccc3NC2=O)nnc1SCC(=O)c1ccc(Cl)cc1 (configuration not stated) | inconclusive: 141 µM [inhibitor, partial curve, poor fit]
COC(=O)c1ccc(C2c3c(oc4ccccc4c3=O)C(=O)N2CCCN2CCOCC2)cc1 (configuration not stated) | inconclusive: 3.98 µM [inhibitor, full curve, poor fit]
O=C(OCC(=O)N1CCN(C(=O)c2ccco2)CC1)c1cc(-c2ccc(Cl)c(Cl)c2Cl)nc2ccccc12 | inactive
O=C(C[n+]1cc(-c2ccccc2)n2c1CCC2)c1cccs1 | inactive
O=C(/C=C/c1ccc(S(=O)(=O)NCc2ccco2)cc1)NCc1ccccc1Cl | inactive
CS(=O)(=O)N1CCC2(CCN(C(=O)Nc3cccc(F)c3)CC2)CC1 | inconclusive: 3.55 µM [inhibitor, full curve, poor fit]
Cc1ccc(N=C2NC(=O)/C(=C/c3cccn3C)S2)cc1 | inconclusive: 22.4 µM [inhibitor, full curve, poor fit]
CCCCC(=O)Nc1ccc(S(=O)(=O)N2CCCCC2c2cccnc2)cc1 (configuration not stated) | inactive
COc1ccc(/C=C(/C#N)C(=O)c2c[nH]c3cc(F)ccc23)cc1 | inconclusive: 50.1 µM [inhibitor, partial curve, poor fit]
O=C(CSc1ccc(Br)cc1)c1ccc(C2CCCCC2)cc1 | inconclusive: 44.7 µM [inhibitor, partial curve, poor fit]
Nc1nnnn1NCc1cc(Cl)ccc1OCc1ccc(F)cc1Cl | inactive
Cc1ccc(C)c(NC(=S)NC(NC(=O)N(C)C)C(Cl)(Cl)Cl)c1 (configuration not stated) | inconclusive: 12.6 µM [inhibitor, full curve]

3 records picked at random from those above:
SMILES | Potency
CCCCC(=O)Nc1ccc(S(=O)(=O)N2CCCCC2c2cccnc2)cc1 (configuration not stated) | inactive
Nc1nnnn1NCc1cc(Cl)ccc1OCc1ccc(F)cc1Cl | inactive
CCOc1ccc(C(C)NC(=O)C2CCCN(c3cnc4nccnc4c3)C2)cc1 (configuration not stated) | inconclusive: 79.4 µM [inhibitor, single point]

Later entries:

SMILES | Potency
Cn1nc(C2CC2)cc1NC(=O)C1(C)CCN1C(=O)Cc1ccc(-c2ccccc2)cc1 (configuration not stated) | inconclusive: 0.355 µM [inhibitor, full curve]
O=C(C[C@H]1C[C@H](C(=O)N2CCCCC2)[C@@]2(CCc3ccccc3)c3[nH]c4cc(-c5ccco5)ccc4c3CCN2C1=O)NCc1cccc(C(F)(F)F)c1 | inconclusive: 28.2 µM [inhibitor, partial curve, poor fit]
Cc1cccc(NC(=S)/N=C(\N)Nc2nc(C)c3ccccc3n2)c1 | inconclusive: 50.1 µM [inhibitor, partial curve, poor fit]
Cc1ccc2[nH]c(=O)c(NC(N)=S)nc2c1 | inconclusive: 50.1 µM [inhibitor, partial curve, poor fit]
CC(C)c1nn2c(=O)cc(COC(=O)c3ccc(NC(=O)C4CCCCC4)cc3)nc2s1 | inactive
O=C(NCc1nc(-c2ccc(C(F)(F)F)cc2)no1)Nc1ccc(OC(F)(F)F)cc1 | inactive
O=C(CC1NCCc2ccccc21)Nc1ccccc1 (configuration not stated) | inactive
CCCOc1ccc(S(=O)(=O)NNC(=O)c2cc3ccccc3o2)cc1 | inconclusive: 44.7 µM [inhibitor, partial curve, poor fit]
COc1cc2cc(C(=O)Nc3ccccc3)c(N)nc2cc1OC | inconclusive: 50.1 µM [inhibitor, partial curve, poor fit]
O=C(CN1C(=O)NC(Cc2c[nH]c3ccccc23)C1=O)Nc1cccc(S(=O)(=O)N2CCOCC2)c1 (configuration not stated) | inconclusive: 14.1 µM [inhibitor, full curve, poor fit]
CCSc1ccccc1C(=O)Nc1ccc(S(=O)(=O)NC(C)=O)cc1 | inconclusive: 56.2 µM [inhibitor, partial curve, poor fit]
CC(C)CCNc1ncnc2c1cnn2Cc1ccccc1Cl | inactive
COCCOCc1nc(C2CCN(C(=O)Nc3ccc(OC)c(OC)c3)CC2)no1 | inactive
COc1ccc(C(=O)c2oc3ccccc3c2N)cc1 | inconclusive: 89.1 µM [inhibitor, single point]
C/C(=N\NC(=O)c1cccs1)c1ccncc1 | inconclusive: 2.51 µM [inhibitor, partial curve, poor fit]
COc1cc(OC)c(C(=O)Nc2nc(C)c(C)s2)cc1OC | inactive
COc1ccc2nc(C)cc(SCC(=O)O)c2c1 | inconclusive: 501 nM [inhibitor, partial curve, poor fit] and inconclusive: 11.2 µM [inhibitor, full curve]
Nc1c(Cl)cccc1C(=O)OCc1nc(N)c2ccccc2n1 | inactive
Cc1ccccc1NC(=O)/C(=C/c1ccco1)c1ccccc1 | inactive
COc1cccc(NC(=O)NCc2cccn2C)c1 | inconclusive: 14.1 µM [inhibitor, partial curve, poor fit]
COc1ccc(-c2cn3cccnc3n2)cc1NC(=O)Nc1ccc(Cl)cc1 | inconclusive: 56.2 µM [inhibitor, partial curve, poor fit]
